In patent US8501426B2, “Method for identifying protease inhibitors” (priority 2006, dated 2013):
Part of at least one peptide drawing is inferred or uncertain, most often the ends. The name of at least one read-out is uncertain. Where a SMILES comes first, the peptide text is derived from it.

Molecular target: T1, HCV NS3•4A (Hepatitis C virus genotype 1a, UniProt P27958)
T1 construct: hexa-histidine (N); made in house; host or cells: Sf9 insect cells (recombinant baculovirus, pVL1392-His-NS3•4A)
Experiment: HCV NS3 peptide cleavage assay with full-length NS3•4A (determination of Km and Vmax)
Assay type: biochemical, HCV sub-type strain 1a
Details: enzyme NS3•4A; peptide substrate varied 3 μM to 200 μM; 25 μM NS4A peptide; reverse phase HPLC
Description: This assay follows the cleavage of a peptide substrate by full-length hepatitis C viral protein NS3•4A. One of three peptide substrates based on the NS5A/NS5B cleavage site for genotype 1a HCV, shown in table 3 below, is used to measure enzyme activity. All substrate stock solutions (25 mM) were prepared in DMSO containing 0.2 M DTT and stored at −20° C. A synthetic peptide cofactor (NS4A Peptide) was used to supplement NS4A. The hydrolysis reaction was performed in a 96-well microtiter plate format using 100 ηM to 125 ηM HCV NS3•4A in buffer containing 50 mM HEPES pH 7.8, 100 mM NaCl, 20% glycerol, 5 mM DTT and 25 μM NS4A peptide. The final DMSO concentration was no greater than 2% v/v. […]
Enzymatic activity was assessed by separation of substrate and products using reverse phase HPLC. The instrument used was an Agilent 1100 with a G1322A degasser, either a G1312A binary pump or a G1311A quaternary pump, a G1313A autosampler, a G1316A column thermostated chamber, a G1321A fluorescence detector and a G1315A diode array detector. […] The C-terminal product peak (NH2-SMSY-COOH) was quantified using the absorbance data collected at 210 ηm. […] The C-terminal product peak (NH2-SMSYT-Asp(EDANS)-KKK-COOH) was quantified using the fluorescence data collected at 350 ηm excitation/490 ηm emission. […]

Compound	kcat/Km
CC[C@H](NC(=O)[C@@H](NC(=O)[C@@H](NC(=O)[C@H](CC(=O)O)NC(=O)[C@@H](N)CCC(=O)O)C(C)C)C(C)C)C(=O)N[C@@H](CS)C(=O)N[C@@H](CO)C(=O)N[C@@H](CCSC)C(=O)N[C@@H](CO)C(=O)N[C@@H](Cc1ccc(O)cc1)C(=O)N[C@H](C(=O)N[C@@H](CC(=O)NCCNc1cccc2c(S(=O)(=O)O)cccc12)C(=O)N[C@@H](CCCCN)C(=O)N[C@@H](CCCCN)C(=O)N[C@@H](CCCCN)C(=O)O)[C@@H](C)O [NS5AB-EDANS, NH2-EDVV-(alpha)Abu-CSMSYT-Asp(EDANS)-KKK-COOH] (HELM PEPTIDE1{E.D.V.V.[Abu].C.S.M.S.Y.T.D.K.K.K}|CHEM1{[O=S(=O)(O)c1cccc2c(NCCN[*:1])cccc12]}$PEPTIDE1,CHEM1,12:R3-1:R1$$$V2.0)	1400 M⁻¹ s⁻¹
FITC-Ahx-EDVV-(alpha)Abu-CSMSYTKK-NH2 [FITC-NS5AB-1, FITC-labelled peptide substrate based on the NS5A/NS5B cleavage site for genotype 1a HCV]	1200 M⁻¹ s⁻¹
